From doi:10.1101/2020.12.30.424670
No constants are given. Whether binding was seen depends on the method and setting. Binding seen in cells or lysates may run through a third protein. Some entries that bind do so weakly or less than the wild type.

Sequences of proteins named here, by UniProt entry; tags and fusion partners are left off. A change or cut given only in a name is not applied to a line headed by its entry. A line that says so, or that is headed by a name, gives the form on record, which may keep a tag or linker. Residues count along the entry.
UniProt P55085, residues 37-397: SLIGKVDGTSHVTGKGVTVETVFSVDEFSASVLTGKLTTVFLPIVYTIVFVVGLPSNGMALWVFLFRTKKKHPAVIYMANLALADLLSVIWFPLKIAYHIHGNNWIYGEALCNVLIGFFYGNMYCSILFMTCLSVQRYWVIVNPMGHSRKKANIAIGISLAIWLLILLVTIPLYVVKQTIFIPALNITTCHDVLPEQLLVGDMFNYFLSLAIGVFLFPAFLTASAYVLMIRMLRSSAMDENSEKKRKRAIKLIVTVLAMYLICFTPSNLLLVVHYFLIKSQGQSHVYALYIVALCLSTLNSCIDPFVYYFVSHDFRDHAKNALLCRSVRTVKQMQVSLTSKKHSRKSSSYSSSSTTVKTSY
renilla luciferase (rluc8) tagged GαoB (P09471-2, form named): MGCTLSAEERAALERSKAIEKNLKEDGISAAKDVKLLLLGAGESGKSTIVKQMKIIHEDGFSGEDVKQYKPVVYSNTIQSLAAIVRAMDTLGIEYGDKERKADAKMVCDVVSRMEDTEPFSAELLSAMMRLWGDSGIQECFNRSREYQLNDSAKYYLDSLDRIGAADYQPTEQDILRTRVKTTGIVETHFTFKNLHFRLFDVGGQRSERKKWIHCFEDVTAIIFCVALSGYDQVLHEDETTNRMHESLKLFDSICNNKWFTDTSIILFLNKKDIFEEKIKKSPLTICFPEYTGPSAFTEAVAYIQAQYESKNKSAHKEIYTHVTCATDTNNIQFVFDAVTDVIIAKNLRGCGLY
UniProt P49407: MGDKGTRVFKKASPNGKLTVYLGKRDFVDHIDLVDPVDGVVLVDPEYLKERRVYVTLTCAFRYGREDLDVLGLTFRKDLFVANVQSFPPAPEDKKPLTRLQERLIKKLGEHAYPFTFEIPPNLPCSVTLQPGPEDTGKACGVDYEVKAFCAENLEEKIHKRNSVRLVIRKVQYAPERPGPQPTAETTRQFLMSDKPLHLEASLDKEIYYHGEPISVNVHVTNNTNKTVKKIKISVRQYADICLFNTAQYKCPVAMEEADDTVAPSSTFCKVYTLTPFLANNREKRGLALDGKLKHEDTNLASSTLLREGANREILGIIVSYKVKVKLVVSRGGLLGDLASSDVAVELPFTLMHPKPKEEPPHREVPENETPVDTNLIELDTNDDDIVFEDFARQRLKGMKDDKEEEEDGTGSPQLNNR
UniProt P32121: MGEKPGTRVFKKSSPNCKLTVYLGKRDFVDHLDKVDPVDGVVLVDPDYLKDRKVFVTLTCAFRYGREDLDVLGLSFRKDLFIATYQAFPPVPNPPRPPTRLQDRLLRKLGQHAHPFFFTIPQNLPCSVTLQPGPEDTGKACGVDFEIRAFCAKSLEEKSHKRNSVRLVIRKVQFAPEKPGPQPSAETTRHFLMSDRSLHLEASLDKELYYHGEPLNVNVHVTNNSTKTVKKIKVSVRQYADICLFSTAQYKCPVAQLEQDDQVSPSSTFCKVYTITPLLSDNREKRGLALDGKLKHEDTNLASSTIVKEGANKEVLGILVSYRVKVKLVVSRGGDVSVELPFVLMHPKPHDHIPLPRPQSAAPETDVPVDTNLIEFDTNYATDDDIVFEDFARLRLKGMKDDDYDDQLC

Target: eYFP tagged PAR2 (PAR2-eYFP), activated by trypsin added to the cells (human) (UniProt P55085)
Test: FRET or BRET

With “renilla luciferase (rluc8) tagged GαoB (from UniProt P09471-2 1-354)” as the substance, how does the binding read?
The binding was “binds”.

“rluc tagged β-arrestin-1 (from UniProt P49407 1-418)” was tested. Which binding did it give?
The binding was “binds”.

With “rluc tagged β-arrestin-2 (from UniProt P32121 1-409)” as the substance, how does the binding read?
Its binding is “binds”.
